# Experimental data from the supplement of paper PMC8728848.
# The list shows a part of the results.
# B1: ERGIC1-EDTA (Homo sapiens), Q969X5 (protein)
# chain: MKFLVNVALVFMVVYISYIYAAAHMHHHHHHDYDIPTTENLYFQGSEVVNELYVDDPDKDSGGKIDVSLNISLPNLHCELVGLDIQDEMGRHEVGHIDNSMKIPLNNGAGCRFEGQFSINKVPGNFHVSTHSATAQPQNPDMTHVIHKLSFGDTLQVQNIHGAFNALGGADRLTSNPLASHDYILKIVPTVYEDKSGKQRYSYQYTVANKEYVAYSHTGRIIPAIWFRYDLSPITVKYTE
# How the values were obtained:
# Experiment in all cases: glycan array binding signal (z-score within array); higher = stronger binding
# Settings in all cases: glycan notation: IUPAC condensed, linker removed
# [1] = molecular target: Neu5Ac(a2-6)Gal(b1-4)GlcNAc(b1-2)Man(a1-3)[Man(a1-6)]Man(b1-4)GlcNAc(b1-4)GlcNAc
# Outline: (§1)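 Arrays were curated from the Consortium for Functional Glycomics database, 3228 in total, and kept only where the protein sequence was available. Binding is expressed as a within-array Z-score. This score was averaged across arrays of the same protein sequence at different concentrations or buffers and across linkers, and negative values can be read as non-binding.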
# [2] = molecular target: Neu5Ac(a2-6)Gal(b1-4)GlcNAc(b1-2)Man(a1-3)[Neu5Ac(a2-3)Gal(b1-4)GlcNAc(b1-2)Man(a1-6)]Man(b1-4)GlcNAc(b1-4)GlcNAc
# Outline: as §1
# [3] = molecular target: Neu5Ac(a2-6)Gal(b1-4)GlcNAc(b1-2)Man(a1-3)[Neu5Ac(a2-6)Gal(b1-4)GlcNAc(b1-2)Man(a1-6)]Man(b1-4)GlcNAc(b1-4)GlcNAc
# Outline: as §1
# [4] = molecular target: Neu5Ac(a2-6)Gal(b1-4)GlcNAc(b1-2)Man(a1-3)[Neu5Ac(a2-6)Gal(b1-4)GlcNAc(b1-2)Man(a1-6)]Man(b1-4)GlcNAc(b1-4)[Fuc(a1-6)]GlcNAc
# Outline: as §1
# [5] = molecular target: Neu5Ac(a2-6)Gal(b1-4)GlcNAc(b1-2)Man(a1-6)Man(b1-4)GlcNAc(b1-4)GlcNAc
# Outline: as §1
# [6] = molecular target: Neu5Ac(a2-6)Gal(b1-4)GlcNAc(b1-2)Man(a1-6)[Gal(b1-4)GlcNAc(b1-2)Man(a1-3)]Man(b1-4)GlcNAc(b1-4)GlcNAc
# Outline: as §1
# [7] = molecular target: Neu5Ac(a2-6)Gal(b1-4)GlcNAc(b1-2)Man(a1-6)[GlcNAc(b1-2)Man(a1-3)]Man(b1-4)GlcNAc(b1-4)GlcNAc
# Outline: as §1
# [8] = molecular target: Neu5Ac(a2-6)Gal(b1-4)GlcNAc(b1-2)Man(a1-6)[Man(a1-3)]Man(b1-4)GlcNAc(b1-4)GlcNAc
# Outline: as §1
# [9] = molecular target: Neu5Ac(a2-6)Gal(b1-4)GlcNAc(b1-2)[Neu5Ac(a2-6)Gal(b1-4)GlcNAc(b1-4)]Man(a1-3)[GlcNAc(b1-4)][Neu5Ac(a2-6)Gal(b1-4)GlcNAc(b1-2)[Neu5Ac(a2-6)Gal(b1-4)GlcNAc(b1-6)]Man(a1-6)]Man(b1-4)GlcNAc(b1-4)GlcNAc
# Outline: as §1
# [10] = molecular target: Neu5Ac(a2-6)Gal(b1-4)GlcNAc(b1-2)[Neu5Ac(a2-6)Gal(b1-4)GlcNAc(b1-4)]Man(a1-3)[GlcNAc(b1-4)][Neu5Ac(a2-6)Gal(b1-4)GlcNAc(b1-4)Man(a1-6)]Man(b1-4)GlcNAc(b1-4)GlcNAc
# Outline: as §1
# [11] = molecular target: Neu5Ac(a2-6)Gal(b1-4)GlcNAc(b1-2)[Neu5Ac(a2-6)Gal(b1-4)GlcNAc(b1-6)]Man(a1-6)[Neu5Ac(a2-6)Gal(b1-4)GlcNAc(b1-2)Man(a1-3)][GlcNAc(b1-4)]Man(b1-4)GlcNAc(b1-4)GlcNAc
# Outline: as §1
# [12] = molecular target: Neu5Ac(a2-6)Gal(b1-4)GlcNAc(b1-3)Gal(b1-3)GlcNAc
# Outline: as §1
# [13] = molecular target: Neu5Ac(a2-6)Gal(b1-4)GlcNAc(b1-3)Gal(b1-4)GlcNAc
# Outline: as §1
# [14] = molecular target: Neu5Ac(a2-6)Gal(b1-4)GlcNAc(b1-3)Gal(b1-4)GlcNAc(b1-2)Man(a1-3)[Neu5Ac(a2-6)Gal(b1-4)GlcNAc(b1-3)Gal(b1-4)GlcNAc(b1-2)Man(a1-6)]GalNAc
# Outline: as §1
# [15] = molecular target: Neu5Ac(a2-6)Gal(b1-4)GlcNAc(b1-3)Gal(b1-4)GlcNAc(b1-3)Gal(b1-4)GlcNAc
# Outline: as §1
# [16] = molecular target: Neu5Ac(a2-6)Gal(b1-4)GlcNAc(b1-3)Gal(b1-4)GlcNAc(b1-3)Gal(b1-4)GlcNAc(b1-2)Man(a1-3)[Neu5Ac(a2-6)Gal(b1-4)GlcNAc(b1-3)Gal(b1-4)GlcNAc(b1-3)Gal(b1-4)GlcNAc(b1-2)Man(a1-6)]GalNAc
# Outline: as §1
# [17] = molecular target: Neu5Ac(a2-6)Gal(b1-4)GlcNAc(b1-3)Gal(b1-4)GlcNAc(b1-3)GalNAc
# Outline: as §1
# [18] = molecular target: Neu5Ac(a2-6)Gal(b1-4)GlcNAc(b1-3)Gal(b1-4)GlcNAc(b1-3)[Neu5Ac(a2-6)Gal(b1-4)GlcNAc(b1-3)Gal(b1-4)GlcNAc(b1-6)]GalNAc
# Outline: as §1
# [19] = molecular target: Neu5Ac(a2-6)Gal(b1-4)GlcNAc(b1-3)Gal(b1-4)GlcNAc(b1-6)[Gal(b1-3)]GalNAc
# Outline: as §1
# [20] = molecular target: Neu5Ac(a2-6)Gal(b1-4)GlcNAc(b1-3)Gal(b1-4)[Fuc(a1-3)]GlcNAc(b1-3)Gal(b1-4)[Fuc(a1-3)]GlcNAc
# Outline: as §1
# [21] = molecular target: Neu5Ac(a2-6)Gal(b1-4)GlcNAc(b1-3)GalNAc
# Outline: as §1
# [22] = molecular target: Neu5Ac(a2-6)Gal(b1-4)GlcNAc(b1-3)[Neu5Ac(a2-6)Gal(b1-4)GlcNAc(b1-6)]GalNAc
# Outline: as §1
# [23] = molecular target: Neu5Ac(a2-6)Gal(b1-4)GlcNAc(b1-6)GalNAc
# Outline: as §1
# [24] = molecular target: Neu5Ac(a2-6)Gal(b1-4)GlcNAc(b1-6)[Gal(b1-3)GlcNAc(b1-3)]Gal(b1-4)Glc
# Outline: as §1
# [25] = molecular target: Neu5Ac(a2-6)Gal(b1-4)GlcNAc(b1-6)[Gal(b1-3)]GalNAc
# Outline: as §1
# [26] = molecular target: Neu5Ac(a2-6)Gal(b1-4)GlcNAc6S
# Outline: as §1
# [27] = molecular target: Neu5Ac(a2-6)GalNAc
# Outline: as §1
# [28] = molecular target: Neu5Ac(a2-6)GalNAc(b1-4)GlcNAc
# Outline: as §1
# [29] = molecular target: Neu5Ac(a2-6)GalNAc(b1-4)GlcNAc6S
# Outline: as §1
# [30] = molecular target: Neu5Ac(a2-6)GlcNAc(b1-4)GlcNAc
# Outline: as §1
# [31] = molecular target: Neu5Ac(a2-6)GlcNAc(b1-4)GlcNAc(b1-4)GlcNAc
# Outline: as §1
binder,measurement,setting,value
B1,glycan array binding signal (z-score),[1],1.69
same,glycan array binding signal (z-score),[2],-1.27
same,glycan array binding signal (z-score),[3],-0.027
same,glycan array binding signal (z-score),[4],2.07
same,glycan array binding signal (z-score),[5],-0.57
same,glycan array binding signal (z-score),[6],0.663
same,glycan array binding signal (z-score),[7],0.274
same,glycan array binding signal (z-score),[8],-0.358
same,glycan array binding signal (z-score),[9],-0.088
same,glycan array binding signal (z-score),[10],-0.499
same,glycan array binding signal (z-score),[11],-0.234
same,glycan array binding signal (z-score),[12],0.896
same,glycan array binding signal (z-score),[13],-0.115
same,glycan array binding signal (z-score),[14],0.213
same,glycan array binding signal (z-score),[15],-0.696
same,glycan array binding signal (z-score),[16],2.02
same,glycan array binding signal (z-score),[17],0.381
same,glycan array binding signal (z-score),[18],0.601
same,glycan array binding signal (z-score),[19],1.47
same,glycan array binding signal (z-score),[20],0.152
same,glycan array binding signal (z-score),[21],-0.625
same,glycan array binding signal (z-score),[22],-1.06
same,glycan array binding signal (z-score),[23],0.124
same,glycan array binding signal (z-score),[24],-0.389
same,glycan array binding signal (z-score),[25],-0.167
same,glycan array binding signal (z-score),[26],-0.225
same,glycan array binding signal (z-score),[27],0.084
same,glycan array binding signal (z-score),[28],-1.36
same,glycan array binding signal (z-score),[29],0.07
same,glycan array binding signal (z-score),[30],0.54
same,glycan array binding signal (z-score),[31],-1.45

# 8 entries from above, bar-delimited.
binder | measurement | setting | value
B1 | glycan array binding signal (z-score) | [12] | 0.896
same | glycan array binding signal (z-score) | [13] | -0.115
same | glycan array binding signal (z-score) | [14] | 0.213
same | glycan array binding signal (z-score) | [15] | -0.696
same | glycan array binding signal (z-score) | [16] | 2.02
same | glycan array binding signal (z-score) | [17] | 0.381
same | glycan array binding signal (z-score) | [18] | 0.601
same | glycan array binding signal (z-score) | [19] | 1.47
